Source: PMC7254050
No constants are given. Whether binding was seen depends on the method and setting. Binding seen in cells or lysates may run through a third protein. Some entries that bind do so weakly or less than the wild type.

Amino acid sequences for entries named in this document (tags omitted).
UniProt Q15746: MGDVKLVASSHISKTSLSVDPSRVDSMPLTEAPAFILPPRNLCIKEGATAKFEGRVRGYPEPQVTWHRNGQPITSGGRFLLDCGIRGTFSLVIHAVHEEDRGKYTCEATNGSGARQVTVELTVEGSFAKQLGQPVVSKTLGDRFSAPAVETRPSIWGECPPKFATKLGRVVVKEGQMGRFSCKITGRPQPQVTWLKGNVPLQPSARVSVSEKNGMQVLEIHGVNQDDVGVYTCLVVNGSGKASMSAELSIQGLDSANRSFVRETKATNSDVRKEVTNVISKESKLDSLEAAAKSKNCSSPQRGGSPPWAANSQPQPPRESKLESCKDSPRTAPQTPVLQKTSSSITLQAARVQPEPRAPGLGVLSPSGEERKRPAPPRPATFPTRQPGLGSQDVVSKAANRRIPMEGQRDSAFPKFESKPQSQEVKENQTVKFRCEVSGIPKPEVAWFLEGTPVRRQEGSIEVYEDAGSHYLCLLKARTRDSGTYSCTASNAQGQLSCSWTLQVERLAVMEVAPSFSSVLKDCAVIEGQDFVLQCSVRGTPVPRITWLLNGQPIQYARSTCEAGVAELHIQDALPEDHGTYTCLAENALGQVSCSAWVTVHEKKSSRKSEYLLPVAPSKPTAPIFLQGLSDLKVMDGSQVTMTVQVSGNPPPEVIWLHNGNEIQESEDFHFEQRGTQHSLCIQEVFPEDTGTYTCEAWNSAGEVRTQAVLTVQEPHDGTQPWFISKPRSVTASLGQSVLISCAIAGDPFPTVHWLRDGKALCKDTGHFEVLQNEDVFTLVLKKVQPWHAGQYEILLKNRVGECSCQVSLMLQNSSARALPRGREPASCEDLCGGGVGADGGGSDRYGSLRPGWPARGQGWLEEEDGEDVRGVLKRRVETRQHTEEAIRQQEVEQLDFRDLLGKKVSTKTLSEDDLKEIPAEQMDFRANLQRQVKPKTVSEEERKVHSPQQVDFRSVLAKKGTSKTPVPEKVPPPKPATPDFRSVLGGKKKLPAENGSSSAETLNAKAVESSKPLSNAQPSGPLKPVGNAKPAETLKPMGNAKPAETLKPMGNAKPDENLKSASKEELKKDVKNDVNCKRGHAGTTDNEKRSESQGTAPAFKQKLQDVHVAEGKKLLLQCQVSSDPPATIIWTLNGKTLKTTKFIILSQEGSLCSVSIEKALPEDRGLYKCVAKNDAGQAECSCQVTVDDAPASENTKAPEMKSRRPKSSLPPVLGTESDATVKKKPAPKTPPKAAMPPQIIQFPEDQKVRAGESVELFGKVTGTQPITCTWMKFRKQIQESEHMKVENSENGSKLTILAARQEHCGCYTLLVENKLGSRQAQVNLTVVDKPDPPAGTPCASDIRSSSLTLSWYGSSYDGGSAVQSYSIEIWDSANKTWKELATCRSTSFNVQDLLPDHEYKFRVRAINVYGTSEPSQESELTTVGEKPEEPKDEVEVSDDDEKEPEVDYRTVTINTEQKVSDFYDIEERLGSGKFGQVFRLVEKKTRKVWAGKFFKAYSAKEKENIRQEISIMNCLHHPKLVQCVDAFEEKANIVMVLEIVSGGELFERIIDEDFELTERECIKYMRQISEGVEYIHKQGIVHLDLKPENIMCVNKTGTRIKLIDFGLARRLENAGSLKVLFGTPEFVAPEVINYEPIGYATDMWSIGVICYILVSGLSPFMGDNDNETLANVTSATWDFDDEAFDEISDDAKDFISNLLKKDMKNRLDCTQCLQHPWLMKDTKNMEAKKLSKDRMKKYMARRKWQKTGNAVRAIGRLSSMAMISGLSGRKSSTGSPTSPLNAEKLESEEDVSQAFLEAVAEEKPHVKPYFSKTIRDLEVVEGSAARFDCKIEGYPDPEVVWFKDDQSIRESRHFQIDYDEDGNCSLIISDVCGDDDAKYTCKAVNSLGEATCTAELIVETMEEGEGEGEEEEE
UniProt P61586: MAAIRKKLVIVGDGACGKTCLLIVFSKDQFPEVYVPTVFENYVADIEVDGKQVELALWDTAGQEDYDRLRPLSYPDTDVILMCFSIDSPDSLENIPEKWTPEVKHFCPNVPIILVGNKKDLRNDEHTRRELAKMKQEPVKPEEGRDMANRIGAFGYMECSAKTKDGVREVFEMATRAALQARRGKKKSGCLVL

Target: T1, Hyaluronidase (HYAL)-2 (human (endogenous in human lung fibroblasts AG02262)) (UniProt Q12891)
T1 sequence: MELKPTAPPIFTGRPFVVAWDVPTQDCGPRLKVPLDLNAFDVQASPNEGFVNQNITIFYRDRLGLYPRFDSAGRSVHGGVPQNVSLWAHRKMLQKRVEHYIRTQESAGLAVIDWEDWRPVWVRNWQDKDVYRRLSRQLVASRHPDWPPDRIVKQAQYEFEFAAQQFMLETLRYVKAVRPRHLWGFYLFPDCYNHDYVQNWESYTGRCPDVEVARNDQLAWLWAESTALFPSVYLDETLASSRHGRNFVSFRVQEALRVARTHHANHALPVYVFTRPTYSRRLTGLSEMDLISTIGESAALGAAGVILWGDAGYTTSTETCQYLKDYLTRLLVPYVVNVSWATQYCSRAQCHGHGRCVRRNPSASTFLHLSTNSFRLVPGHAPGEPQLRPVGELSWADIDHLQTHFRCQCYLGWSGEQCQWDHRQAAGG
Experiment: co-IP; 25 μg protein of RIPA lysate of human lung fibroblasts (serum-free medium alone or 10 ng/mL TGF-β1, 72 hours) precipitated with anti-HYAL2 antibody-linked anti-rabbit Dynabeads, overnight at 4°C, three washes with Nonidet P-40 buffer; Western blot of the precipitate; rabbit IgG as negative control

| Substance | binding |
| --- | --- |
| myosin light-chain kinase (MYLK; MLCK) (from UniProt Q15746 1-1914) (enzyme) | binds |
| ras homolog family member A (RhoA) (from UniProt P61586 1-193) | binds |
